Data: article doi:10.1101/2023.01.12.523874

Assays:
Test in all cases: pull-down
[1] = molecular target: T1, GST-FliF_1, N-terminus (1-55) of Vibrio FliF without the first transmembrane region (Vibrio alginolyticus) (UniProt Q75N27)
T1 sequence: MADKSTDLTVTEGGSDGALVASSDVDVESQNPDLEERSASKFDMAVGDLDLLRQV

[2] = molecular target: T2, GST-FliF_2, N-terminus (1-80) of Vibrio FliF containing the first transmembrane region (Vibrio alginolyticus) (UniProt Q75N27)
T2 sequence: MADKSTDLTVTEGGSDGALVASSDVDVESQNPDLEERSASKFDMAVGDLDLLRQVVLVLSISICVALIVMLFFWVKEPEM

[3] = molecular target: T3, GST-FliF_3, periplasmic region (74-469) of Vibrio FliF (Vibrio alginolyticus) (UniProt Q75N27)
T3 sequence: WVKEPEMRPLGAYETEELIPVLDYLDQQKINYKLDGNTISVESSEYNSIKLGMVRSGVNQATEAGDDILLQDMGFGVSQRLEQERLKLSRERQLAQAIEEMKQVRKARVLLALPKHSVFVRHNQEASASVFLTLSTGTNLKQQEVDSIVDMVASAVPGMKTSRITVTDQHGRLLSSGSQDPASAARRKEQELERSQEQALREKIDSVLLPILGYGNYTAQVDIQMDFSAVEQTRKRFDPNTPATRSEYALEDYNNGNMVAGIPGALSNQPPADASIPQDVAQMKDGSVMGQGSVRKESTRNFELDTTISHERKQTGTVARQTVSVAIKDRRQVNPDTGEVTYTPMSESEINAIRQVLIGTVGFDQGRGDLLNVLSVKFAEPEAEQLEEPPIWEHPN

[4] = molecular target: T4, GST-FliF_4, C-terminus (493-580) of Vibrio FliF after the second transmembrane region (Vibrio alginolyticus) (UniProt Q75N27)
T4 sequence: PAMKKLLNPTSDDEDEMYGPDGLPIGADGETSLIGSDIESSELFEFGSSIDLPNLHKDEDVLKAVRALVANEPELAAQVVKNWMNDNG

Measured: binding

FlhF overproduced from plasmid pTSK110 (Vibrio alginolyticus)
no binding: all assays above

Results are given in words; binding and its absence hold for the method and conditions named. In cells and extracts the contact can be indirect. Tags and fused reporters may be left off the sequences shown.
